## Primary screen of a compound library

Sequences of proteins named here, by UniProt entry; tags and fusion partners are left off. Residues count along the entry.
UniProt I6X8D2, whole entry: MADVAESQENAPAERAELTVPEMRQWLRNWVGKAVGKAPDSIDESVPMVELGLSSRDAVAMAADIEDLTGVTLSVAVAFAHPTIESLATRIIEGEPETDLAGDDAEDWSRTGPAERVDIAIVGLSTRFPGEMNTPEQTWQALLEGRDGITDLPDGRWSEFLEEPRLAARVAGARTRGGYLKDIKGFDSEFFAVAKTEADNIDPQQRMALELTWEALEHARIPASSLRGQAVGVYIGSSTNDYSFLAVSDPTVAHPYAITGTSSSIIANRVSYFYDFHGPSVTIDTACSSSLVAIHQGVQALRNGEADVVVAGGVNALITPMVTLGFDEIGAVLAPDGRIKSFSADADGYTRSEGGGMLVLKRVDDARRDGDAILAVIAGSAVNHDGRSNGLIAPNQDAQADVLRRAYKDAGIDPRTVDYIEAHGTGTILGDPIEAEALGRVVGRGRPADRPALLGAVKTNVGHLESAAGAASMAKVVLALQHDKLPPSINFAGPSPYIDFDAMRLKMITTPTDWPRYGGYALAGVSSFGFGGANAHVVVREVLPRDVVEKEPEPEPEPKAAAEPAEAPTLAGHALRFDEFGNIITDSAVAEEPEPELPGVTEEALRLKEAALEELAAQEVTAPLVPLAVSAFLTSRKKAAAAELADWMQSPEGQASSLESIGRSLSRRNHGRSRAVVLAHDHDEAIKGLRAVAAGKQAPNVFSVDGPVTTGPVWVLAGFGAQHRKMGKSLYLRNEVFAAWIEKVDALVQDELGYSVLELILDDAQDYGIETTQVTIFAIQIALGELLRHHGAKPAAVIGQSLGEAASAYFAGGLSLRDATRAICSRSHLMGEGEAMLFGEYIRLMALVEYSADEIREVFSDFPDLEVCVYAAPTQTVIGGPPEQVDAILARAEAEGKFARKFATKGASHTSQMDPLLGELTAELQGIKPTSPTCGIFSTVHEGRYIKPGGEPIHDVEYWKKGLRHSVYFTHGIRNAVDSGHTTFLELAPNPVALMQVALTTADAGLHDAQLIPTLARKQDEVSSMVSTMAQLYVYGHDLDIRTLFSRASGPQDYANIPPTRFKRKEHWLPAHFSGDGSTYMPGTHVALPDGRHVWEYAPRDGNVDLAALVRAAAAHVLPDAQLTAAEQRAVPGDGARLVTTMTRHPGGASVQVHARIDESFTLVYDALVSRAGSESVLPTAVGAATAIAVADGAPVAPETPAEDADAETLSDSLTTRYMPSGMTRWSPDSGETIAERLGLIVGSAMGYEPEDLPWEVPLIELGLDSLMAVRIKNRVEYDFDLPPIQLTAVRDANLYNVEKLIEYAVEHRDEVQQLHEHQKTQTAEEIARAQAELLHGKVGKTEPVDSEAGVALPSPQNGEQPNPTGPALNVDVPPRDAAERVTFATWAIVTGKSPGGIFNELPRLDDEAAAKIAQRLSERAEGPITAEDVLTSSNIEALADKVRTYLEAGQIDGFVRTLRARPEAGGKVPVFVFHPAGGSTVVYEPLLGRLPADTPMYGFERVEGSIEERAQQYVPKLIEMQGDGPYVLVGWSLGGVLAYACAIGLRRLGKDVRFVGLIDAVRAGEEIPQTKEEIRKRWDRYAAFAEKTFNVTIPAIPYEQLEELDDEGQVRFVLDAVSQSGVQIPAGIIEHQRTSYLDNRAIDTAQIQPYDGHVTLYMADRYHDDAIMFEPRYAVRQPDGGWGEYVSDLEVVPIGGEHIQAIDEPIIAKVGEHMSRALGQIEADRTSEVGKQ
UniProt P9WNZ1, whole entry: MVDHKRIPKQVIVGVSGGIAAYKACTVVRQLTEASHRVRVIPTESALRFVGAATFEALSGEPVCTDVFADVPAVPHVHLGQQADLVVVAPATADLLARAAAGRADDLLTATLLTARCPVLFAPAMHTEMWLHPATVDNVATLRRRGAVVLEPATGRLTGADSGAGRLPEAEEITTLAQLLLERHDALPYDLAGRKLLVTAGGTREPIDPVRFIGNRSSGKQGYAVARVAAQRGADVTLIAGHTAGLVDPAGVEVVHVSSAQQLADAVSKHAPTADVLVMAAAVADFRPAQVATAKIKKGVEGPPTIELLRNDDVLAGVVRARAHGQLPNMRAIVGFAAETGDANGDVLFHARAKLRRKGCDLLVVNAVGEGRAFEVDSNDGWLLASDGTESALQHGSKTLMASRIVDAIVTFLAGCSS
UniProt Q8IDJ8, 1-583: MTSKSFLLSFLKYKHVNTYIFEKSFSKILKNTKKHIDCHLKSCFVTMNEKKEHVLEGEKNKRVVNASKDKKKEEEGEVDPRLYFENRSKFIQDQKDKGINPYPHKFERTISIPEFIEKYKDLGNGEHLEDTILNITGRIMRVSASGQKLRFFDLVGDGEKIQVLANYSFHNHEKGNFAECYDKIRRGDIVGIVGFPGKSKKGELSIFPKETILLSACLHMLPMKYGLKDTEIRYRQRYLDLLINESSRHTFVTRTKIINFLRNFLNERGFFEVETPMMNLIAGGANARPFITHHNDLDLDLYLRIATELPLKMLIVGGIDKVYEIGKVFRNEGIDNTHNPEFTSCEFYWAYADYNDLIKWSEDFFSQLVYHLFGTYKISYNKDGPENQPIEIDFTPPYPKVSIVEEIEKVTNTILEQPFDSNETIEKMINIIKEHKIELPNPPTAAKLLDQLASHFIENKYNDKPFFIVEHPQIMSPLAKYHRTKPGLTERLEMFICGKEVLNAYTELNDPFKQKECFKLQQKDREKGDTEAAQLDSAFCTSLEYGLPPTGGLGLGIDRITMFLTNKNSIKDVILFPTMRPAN
UniProt Q4DA54, 1-478: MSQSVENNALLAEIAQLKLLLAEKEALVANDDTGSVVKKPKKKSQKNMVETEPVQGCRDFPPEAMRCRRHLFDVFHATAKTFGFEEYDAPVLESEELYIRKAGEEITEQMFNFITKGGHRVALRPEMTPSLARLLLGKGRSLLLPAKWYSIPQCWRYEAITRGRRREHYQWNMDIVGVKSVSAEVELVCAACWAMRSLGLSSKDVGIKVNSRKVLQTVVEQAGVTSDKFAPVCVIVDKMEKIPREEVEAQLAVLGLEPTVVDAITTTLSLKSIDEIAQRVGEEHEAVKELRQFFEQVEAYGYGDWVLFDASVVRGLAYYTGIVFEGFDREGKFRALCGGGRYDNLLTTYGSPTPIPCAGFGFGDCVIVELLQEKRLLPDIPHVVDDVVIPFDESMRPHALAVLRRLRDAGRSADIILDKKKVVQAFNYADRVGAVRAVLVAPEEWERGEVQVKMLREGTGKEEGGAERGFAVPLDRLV

Values are the deposited “Percent Effect”, in %.
The record does not define 0% and 100%; most values in the screen are far below 50% and negative numbers occur (in some assays of this library far below -100).
Compounds were drawn at random from those tested, without regard to their results.

A: 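Enzyme assay of the thioesterase domain of polyketide synthase 13; the read-out is not stated. Target: Polyketide synthase Pks13, Mycobacterium tuberculosis (UniProt I6X8D2). Compounds at 30 µM. The record gives no direction; the compounds picked for IC50 retests had high values, so higher reads as stronger inhibition. Of about 67,000 compounds tested this way, about 300 (0.46%) reached 50% or more in at least one test.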
B: 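Coenzyme A biosynthesis protein CoaBC, Mycobacterium tuberculosis (UniProt P9WNZ1). Enzyme assay of CoaBC with a phosphate dye (Biomol Green) read at 650 nm. Compounds at 30 µM. Direction is inferred from only a few compounds that gave an IC50; most scored high, so higher reads as stronger inhibition. Most strong results did not repeat in a second test. Of about 67,000 compounds tested this way, about 40 (0.06%) reached 50% or more in at least one test.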
C: 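Enzyme assay of the cytosolic lysyl-tRNA synthetase in 384-well plates, read by luminescence. Target: Lysine-tRNA ligase, Plasmodium falciparum 3D7 (UniProt Q8IDJ8). Compounds at 30 µM. Direction is inferred from only a few compounds that gave an IC50; most scored high, so higher reads as stronger inhibition. About 69,000 compounds were tested under these conditions; 0.071% (about 49) showed 50% or more at least once.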
D: 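Enzyme assay of histidyl-tRNA synthetase; the read-out is not stated. Target: Histidine-tRNA ligase, Trypanosoma cruzi CL Brener (UniProt Q4DA54). Concentration: 30 µM. Higher reads as stronger inhibition (inferred: compounds with an IC50 in retests scored well above the rest). About 69,000 compounds were tested under these conditions; 0.045% (about 31) showed 50% or more at least once.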

{"compound": "Cc1nc2c(c(N(C)C)n1)CCN(C(=O)c1ccc(N)nc1)C2", "A": -0.1773, "B": -0.4854, "C": -0.9189, "D": 12.87}
{"compound": "COc1c(C2CCCN2C(=O)c2cnc[nH]2)c(C)nn1C", "stereo": "configuration not stated", "A": -13.31, "B": 3.226, "C": 0.6669, "D": 1.149}
{"compound": "COCCCN1CCCN(C(C)c2nc(C3CC3)no2)CC1", "stereo": "configuration not stated", "A": -10.03, "B": 1.686, "C": -3.637, "D": -1.916}
{"compound": "CC(C)CC(NC(=O)c1cnn(C)c1)C(=O)Nc1cc[nH]n1", "stereo": "configuration not stated", "A": -16.12, "B": 15, "C": 1.408, "D": 3.784}
{"compound": "Nc1ncccc1CN1C[C@@H](C(=O)O)[C@H](c2cccc(F)c2)C1", "A": -26.97, "B": -3.23, "C": 5.158, "D": 3.59}
{"compound": "CCCN(C)CCC(=O)N1CCCC1Cn1cccn1", "stereo": "configuration not stated", "A": -4.134, "B": -1.837, "C": -0.4209, "D": 2.286}
{"compound": "O=C1CSc2ccc(C(=O)N3CCCC(n4ccnc4)C3)cc2N1", "stereo": "configuration not stated", "A": -48, "B": 0.6593, "C": 8.093, "D": 9.278}
{"compound": "O=C(C1CCCCC1)N1CCC2(CCCN2CC2CC2)CC1", "A": -7.271, "B": 0.2418, "C": 6.102, "D": 3.759}
{"compound": "Cn1cc(C(=O)N2CCCCC2CCc2ccc(O)cc2)cn1", "stereo": "configuration not stated", "A": -5.425, "B": 0.4545, "C": 2.958, "D": -16.76}
{"compound": "Cc1nc(N(C)C)ncc1C(=O)NCCCn1nccc1C1CC1", "A": 22.28, "B": -1.709, "C": -3.266, "D": 2.703}
{"compound": "CCc1csc(C2CCCN(C(=O)c3cnc[nH]3)C2)n1", "stereo": "configuration not stated", "A": -4.998, "B": 8.645, "C": 0.1549, "D": 6.322}
{"compound": "CCCC(C)CS(=O)(=O)NCc1cccnc1N(C)C", "stereo": "configuration not stated", "A": -18.43, "B": -0.6593, "C": -0.2971, "D": 6.186}
{"compound": "Cc1nccc(-c2ccccc2)c1C(=O)N1CCC2(CN(C)C(=O)O2)C1", "stereo": "configuration not stated", "A": -17.38, "B": 1.373, "C": 4.705, "D": 12.71}
{"compound": "CN1CCC2(CC1)CN(C(=O)c1cnccn1)Cc1ccccc12", "A": 1.528, "B": -6.694, "C": 3.976, "D": 2.521}
{"compound": "Cc1cc(CN(C)CCC(O)c2ccccc2)no1", "stereo": "configuration not stated", "A": -7.057, "B": 3.155, "C": 4.37, "D": 6.818}
{"compound": "Cc1ccccc1C(C)NC(=O)CN1CCN(Cc2cccs2)CC1", "stereo": "configuration not stated", "A": -17.62, "C": 0.3939, "D": 14.65}
{"compound": "Nc1ncnc2nc(C3CCCCN3)ccc12", "stereo": "configuration not stated", "A": 9.725, "B": 4.358, "C": 5.594, "D": 0}
{"compound": "Cc1nonc1C1CCCN1C(=O)c1cc2n(n1)CCCN(C(C)C)C2", "stereo": "configuration not stated", "A": -22.34, "B": -8.571, "C": 4.599, "D": -7.216}
{"compound": "Cc1cnc(N2CCc3onc(COc4cccnc4)c3C2)nc1", "A": -14.15, "B": 5.679, "C": 4.756, "D": 7.407}
{"compound": "CC(C)NC(=O)N1CCOC2(CCCN(c3cccc(C#N)c3)C2)C1", "stereo": "configuration not stated", "A": -34.24, "B": 10, "C": 5.183, "D": 3.743}
{"compound": "Cc1noc(C)c1CN1CCO[C@H]2CN(Cc3cccnc3)C[C@H]21", "A": -13.36, "B": 2.335, "C": 1.872, "D": 5.6}
{"compound": "Cc1ccc(-c2noc(CN3CCOC(Cn4cncn4)C3)n2)cc1", "stereo": "configuration not stated", "A": -4.935, "B": 5.059, "C": -2.641, "D": 0.3831}
{"compound": "Cc1cnc(-c2nc(C3CCN(Cc4ccccc4Cl)CC3)no2)cn1", "A": 11.83, "B": -0.2392, "C": -1.025, "D": 3.448}
{"compound": "Cc1ccc(N2CCO[C@H]3CN(Cc4ccoc4)C[C@H]32)nn1", "A": -3.35, "B": -16.02, "C": 5.008, "D": 10.92}
{"compound": "COCCNC(=O)C1(Cc2ccccc2-c2ccncc2)CCOCC1", "A": 4.354, "B": 0.3708, "C": 2.705, "D": 0.7605}
{"compound": "c1cnn(CCCO[C@@H]2CC[C@H]3[C@H]2OCCN3CC2CCOCC2)c1", "A": -11.24, "B": -17.14, "C": -0.02359, "D": -25.71}
{"compound": "CCCN1CCN(C(=O)c2cnccc2C)[C@H]2CS(=O)(=O)C[C@H]21", "A": 6.2, "B": 0.7937, "C": 5.119, "D": -2.041}
{"compound": "Cc1cccc(NC(=O)N2CCC3(CCC(C(=O)N(C)C)O3)CC2)c1", "stereo": "configuration not stated", "A": -5.946, "B": -1.361, "C": 1.647, "D": -3.518}
{"compound": "CC(NCc1ccco1)c1nnc2n1CCCC2", "stereo": "configuration not stated", "A": -9.719, "B": -9.073, "C": 0, "D": 3.261}
{"compound": "CN1CC2(CCN(C(=O)c3cccc(-n4cccn4)c3)CC2)OC1=O", "A": -5.981, "B": 7.006, "C": 8.442, "D": 0.8}
{"compound": "COCCCN1CCCN(C(C)C(=O)Nc2cccc(I)c2)CC1", "stereo": "configuration not stated", "A": -21.68, "B": -30.85, "C": 0.6382, "D": 10.16}
{"compound": "Cc1cccc(CC2COCCN(Cc3nccn3C)C2)n1", "stereo": "configuration not stated", "A": 11.96, "B": 1.214, "C": 3.428, "D": 9.89}

Some entries from above, unchanged:

* CC(C)NC(=O)N1CCOC2(CCCN(c3cccc(C#N)c3)C2)C1 (configuration not stated) : A: -34.24%; B: 10%; C: 5.183%; D: 3.743%
* O=C(C1CCCCC1)N1CCC2(CCCN2CC2CC2)CC1 : A: -7.271%; B: 0.2418%; C: 6.102%; D: 3.759%
* COCCCN1CCCN(C(C)c2nc(C3CC3)no2)CC1 (configuration not stated) : A: -10.03%; B: 1.686%; C: -3.637%; D: -1.916%
* Cc1nc2c(c(N(C)C)n1)CCN(C(=O)c1ccc(N)nc1)C2 : A: -0.1773%; B: -0.4854%; C: -0.9189%; D: 12.87%

Data taken from ChEMBL document CHEMBL3988442, “University of Dundee, Small-Polar-MMV Screening Library” (2021).